PubChem BioAssay AID1259331 – Drosophila RNAi Screening Center, 2017

Aim: 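Genes whose knock-down changes cell survival under toxic zinc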 (primary screen)
Cells: Drosophila S2R+ cells
Knock-down reagent: long dsRNA against Drosophila genes
Timing: 5 days (4 days knock-down, then 1 day zinc)
Treatment: zinc chloride at 15 mM final level for 1 day
Measured: 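Luminescent ATP assay standing in for viability; Z score is the mean over three replicate plates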
Reading the numbers: mean Z score: higher = more ATP than other wells, better survival under zinc; ATP luminescence: higher = more ATP, more viable cells
Call rule: 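Hit when the absolute Z score is greater than 1.5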
Meaning of the calls: active = hit, ATP up or down; inactive = not a hit
The whole screen tested about 3,100 reagents; shown is an unselected part. 126 of them (4.1%) were called active. 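Calls are per reagent; zinc was so toxic that few knock-downs lowered ATP further, so most hits raise ATP.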 Raw values vary from plate to plate and are shown uncorrected. Entries without a mark were called inactive. Not stated in the record: the amount of reagent.

With knock-down of CG32687 [DRSC18210], the record shows mean Z score -0.153; ATP luminescence, replicate 1 = 40228; ATP luminescence, replicate 2 = 44685.
CG32687 [DRSC18237] gave mean Z score -0.988; ATP luminescence, replicate 1 = 48274; ATP luminescence, replicate 2 = 51098.
Knock-down of CG32687 [DRSC37079] came out at: mean Z score -0.723; ATP luminescence, replicate 1 = 33764; ATP luminescence, replicate 2 = 41771.
For Dh44-R1 [DRSC07172], the entry reads mean Z score -0.58; ATP luminescence, replicate 1 = 25761; ATP luminescence, replicate 2 = 29410.
Silencing of Dh44-R1 [DRSC28984] resulted in: mean Z score 2.29 (active); ATP luminescence, replicate 1 = 98042; ATP luminescence, replicate 2 = 95238.
Depletion of Cad86C [DRSC15611] came out at: mean Z score -0.324; ATP luminescence, replicate 1 = 33644; ATP luminescence, replicate 2 = 56845.
After knock-down of Cad86C [DRSC27602], the record shows mean Z score 1.3; ATP luminescence, replicate 1 = 78023; ATP luminescence, replicate 2 = 76819.
Cad86C [DRSC28094] gave mean Z score -0.0567; ATP luminescence, replicate 1 = 60975; ATP luminescence, replicate 2 = 50155.

Records listed above marked active, once more:
Dh44-R1 [DRSC28984]: mean Z score = 2.29 (active); ATP luminescence, replicate 1 = 98042; ATP luminescence, replicate 2 = 95238

Additional records:
Knock-down of GABA-B-R3 [DRSC00561] resulted in: mean Z score -0.56; ATP luminescence, replicate 1 = 39285; ATP luminescence, replicate 2 = 38668.
Depletion of GABA-B-R3 [DRSC29404] gave: mean Z score -0.117; ATP luminescence, replicate 1 = 56791; ATP luminescence, replicate 2 = 62450.
After knock-down of SCAP [DRSC04869], the record shows mean Z score 0.28; ATP luminescence, replicate 1 = 1.08e5; ATP luminescence, replicate 2 = 77754.
Knock-down of SCAP [DRSC04907] gave: mean Z score 0.192; ATP luminescence, replicate 1 = 88366; ATP luminescence, replicate 2 = 72637.
CG33298 [DRSC02210] scored mean Z score -0.0729; ATP luminescence, replicate 1 = 47821; ATP luminescence, replicate 2 = 40210.
After knock-down of CG33298 [DRSC02672], the screen gave mean Z score -0.196; ATP luminescence, replicate 1 = 52601; ATP luminescence, replicate 2 = 54356.
With knock-down of CG9747 [DRSC23910], the record shows mean Z score -0.194; ATP luminescence, replicate 1 = 53293; ATP luminescence, replicate 2 = 53814.
CG9747 [DRSC39676] gave mean Z score -0.122; ATP luminescence, replicate 1 = 59339; ATP luminescence, replicate 2 = 58612.
Against CG32447 [DRSC11732] the deposit lists mean Z score -0.344; ATP luminescence, replicate 1 = 26325; ATP luminescence, replicate 2 = 28570.
With knock-down of CG32447 [DRSC11805], the screen gave mean Z score -0.162; ATP luminescence, replicate 1 = 73632; ATP luminescence, replicate 2 = 60272.
Osi14 [DRSC12368] scored mean Z score 3.68 (active); ATP luminescence, replicate 1 = 1.51e5; ATP luminescence, replicate 2 = 1.28e5.
Osi14 [DRSC26397] gave mean Z score -0.159; ATP luminescence, replicate 1 = 54990; ATP luminescence, replicate 2 = 55093.
Silencing of klar [DRSC22393] came out at: mean Z score -0.559; ATP luminescence, replicate 1 = 50052; ATP luminescence, replicate 2 = 50841.
CG9664 [DRSC00725] showed mean Z score -0.243; ATP luminescence, replicate 1 = 49246; ATP luminescence, replicate 2 = 56551.
Knock-down of CG4576 [DRSC15604] came out at: mean Z score -0.527; ATP luminescence, replicate 1 = 33679; ATP luminescence, replicate 2 = 51029.
Against CG4576 [DRSC26364], the values are mean Z score -0.101; ATP luminescence, replicate 1 = 54126; ATP luminescence, replicate 2 = 50035.
